Measurements: US11352394B2, “Cyclic cell penetrating peptides comprising beta-hairpin motifs and methods of making and using thereof” (Ohio State Innovation Foundation, priority 2016, dated 2022)
Some results were stated once for a whole list of compounds, not compound by compound. Some compounds share one range, which may span the group rather than tell each member. Square brackets hold non-standard residues; d marks the D form. Peptide text beside a SMILES is read from it. 2Nal = N[C@@H](Cc1ccc2ccccc2c1)C(=O)O

Assays:
[1] = tested on: HO-1 protein (Keap1-Nrf2-ARE pathway), HEK293 cells; assay: Anti-HO1 immunoblot of HO-1 protein level in HEK293 cells; assay type: cell-based, human; details: 40 μM peptide, 16 h
Experimental: FIG. 5 is an image from a Western blot analysis of HO-1 protein levels in HEK293 cells untreated or after treatment with SFN (10 μM) or a cyclic β-hairpin peptide (40 μM).
FIG. 8 is a western blot showing the effect of peptide BH15 on the protein level of HO-1, a protein downstream of the Keap1-Nrf2-ARE pathway. SFN, a small-molecule positive control; blank, no inhibitor.
The cellular activity of Keap1-Nrf2 inhibitors BH13-18 was assessed by examining their effects on the expression levels of HO-1 protein, by anti-HO1 immunoblot analysis. HO-1 is an antioxidant enzyme under the transcriptional control of Nrf2 binding to the ARE, and disruption of the Keap1-Nrf2 interaction is expected to increase the protein level of HO-1.
BH15 enters human cells, binds and inhibits the function of Keap1 (which promotes the ubiquitination and degradation of Nrf2), resulting in increased intracellular levels of Nrf2, a transcription factor. […] This in turn results in the increased levels of HO-1, a protein whose expression is controlled by Nrf2.

[2] = tested on: HeLa cells; assay: Cellular (cytosolic) uptake of NF-labeled peptides by flow cytometry (MFI); assay type: cell-based; details: 5 μM NF-labeled peptide, 2 h, relative to CPP1 (100%)
Experimental: HeLa cells were treated with 5 μM peptide for 2 h, and their cell uptake efficiencies were determined by flow cytometry analysis. The mean fluorescence intensity (MFI) values derived from cytometry analyses reflect the amounts of peptides inside the cytosol and nucleus, whereas any NF-labeled peptide entrapped inside the acidic endosomes are invisible under the experimental conditions (Id.; Qian, Z et al. Chem. Commun. 2015, 51, 2162-2165).
The binding affinity of BH23 (unlabeled) for the Grb2 SH2 domain was then determined by examining its ability to compete with the FAM-labeled ligand for binding to the Grb2 SH2 domain by fluorescence polarization (FP). […] Next, BH23 was labeled with NF at the Asn side chain through a miniPEG-Lys linker and its cytosolic entry efficiency was quantitated by treating HeLa cells with 5 μM of the labeled peptide for 2 h before flow cytometry analysis. […] BH23 was also similarly labeled at the Asn side chain with FAM and its entry into HeLa cells was examined by live-cell confocal microscopy. […] Two control peptides (BH24 and BH25) were also prepared for cellular assays. BH24 and BH25 are structurally similar to BH23, except that BH24 contained a Tyr instead of the pY residue (FIG. 11), whereas in BH25 the two hydrophobic residues critical for cellular uptake (Nal-arg) were replaced with Ala-ala (FIG. 12).
BHT1 and BHT2 were labeled with naphthofluorescein (NF) and their cytosolic uptake into HeLa cells was determined by flow cytometry (Table 10).
Additional cell penetrating compounds were prepared and tested for cytosolic delivery. In these compounds there was no beta-hairpin turn creating moiety.

**Q.** Which “HO-1 protein expression relative to untreated control” value [1] does the source give for `CC(C)C[C@@H]1NC(=O)[C@H](CCC(N)=O)NC(=O)[C@H](Cc2ccccc2)NC(=O)[C@H](CCCNC(=N)N)NC(=O)[C@H](CCCNC(=N)N)NC(=O)[C@@H]2CCCN2C(=O)[C@H]2CCCN2C(=O)[C@@H](CCCNC(=N)N)NC(=O)[C@H](Cc2ccc3ccccc3c2)NC(=O)[C@H](Cc2ccccc2)NC(=O)[C@H](Cc2ccccc2)NC(=O)[C@H](CCC(=O)O)NC(=O)CNC(=O)[C@H]([C@@H](C)O)NC(=O)[C@H](CCC(=O)O)NC(=O)[C@@H]2CCCN2C(=O)[C@H](CC(=O)O)NC1=O` [BH13, cyclo(F-F-Φ-r-p-P-R-R-F-Q-L-D-P-E-T-G-E)] (cyclo(FF[2Nal][dR][dP]PRRFQLDPETGE)) here?
**A.** Its value is “significantly increased”.

**Q.** With `CC(C)C[C@@H]1NC(=O)[C@H](CCC(N)=O)NC(=O)[C@H](Cc2ccccc2)NC(=O)[C@H](CCCNC(=N)N)NC(=O)[C@H](CCCNC(=N)N)NC(=O)[C@@H]2CCCN2C(=O)[C@H]2CCCN2C(=O)[C@@H](CCCNC(=N)N)NC(=O)[C@H](Cc2ccc3ccccc3c2)NC(=O)[C@H](Cc2ccccc2)NC(=O)[C@H](Cc2ccccc2)NC(=O)[C@H](CCC(=O)O)NC(=O)CNC(=O)[C@H]([C@@H](C)O)NC(=O)[C@H](CCC(=O)O)NC(=O)[C@H](C)NC(=O)[C@H](CC(N)=O)NC1=O` [BH14, cyclo(F-F-Φ-r-p-P-R-R-F-Q-L-N-A-E-T-G-E)] (cyclo(FF[2Nal][dR][dP]PRRFQLNAETGE)) as the compound, how does the “HO-1 protein expression relative to untreated control” value [1] read?
**A.** Its value is “significantly increased”.

**Q.** `CC(C)C[C@@H]1NC(=O)[C@H](Cc2ccccc2)NC(=O)[C@H](CCCNC(=N)N)NC(=O)[C@H](CCCNC(=N)N)NC(=O)[C@@H]2CCCN2C(=O)[C@H]2CCCN2C(=O)[C@@H](CCCNC(=N)N)NC(=O)[C@H](Cc2ccc3ccccc3c2)NC(=O)[C@H](Cc2ccccc2)NC(=O)[C@H](Cc2ccccc2)NC(=O)[C@H](CCC(=O)O)NC(=O)CNC(=O)[C@H]([C@@H](C)O)NC(=O)[C@H](CCC(=O)O)NC(=O)[C@@H]2CCCN2C(=O)[C@H](CC(=O)O)NC1=O` [BH15, cyclo(F-F-Φ-r-p-P-R-R-F-L-D-P-E-T-G-E)] was tested. Which “HO-1 protein expression relative to untreated control” value [1] did it give?
**A.** The value was “significantly increased”.

**Q.** How did the “HO-1 protein expression relative to untreated control” value [1] turn out when `CC(C)C[C@@H]1NC(=O)[C@H](Cc2ccccc2)NC(=O)[C@H](CCCNC(=N)N)NC(=O)[C@H](CCCNC(=N)N)NC(=O)[C@@H]2CCCN2C(=O)[C@H]2CCCN2C(=O)[C@@H](CCCNC(=N)N)NC(=O)[C@H](Cc2ccc3ccccc3c2)NC(=O)[C@H](Cc2ccccc2)NC(=O)[C@H](Cc2ccccc2)NC(=O)[C@H](CCC(=O)O)NC(=O)CNC(=O)[C@H]([C@@H](C)O)NC(=O)[C@H](CCC(=O)O)NC(=O)[C@H](C)NC(=O)[C@H](CC(N)=O)NC1=O` [BH16, cyclo(F-F-Φ-r-p-P-R-R-F-L-N-A-E-T-G-E)] (cyclo(FF[2Nal][dR][dP]PRRFLNAETGE)) was run?
**A.** Its value is “significantly increased”.

**Q.** How did the “HO-1 protein expression relative to untreated control” value [1] turn out when `CC(C)C[C@@H]1NC(=O)[C@H](Cc2ccccc2)NC(=O)[C@H](CCCNC(=N)N)NC(=O)[C@H](CCCNC(=N)N)NC(=O)[C@@H]2CCCN2C(=O)[C@H]2CCCN2C(=O)[C@@H](CCCNC(=N)N)NC(=O)[C@H](Cc2ccc3ccccc3c2)NC(=O)[C@H](Cc2ccccc2)NC(=O)[C@H](CCC(=O)O)NC(=O)CNC(=O)[C@H]([C@@H](C)O)NC(=O)[C@H](CCC(=O)O)NC(=O)[C@H](C)NC(=O)[C@H](CC(N)=O)NC1=O` [BH18, cyclo(F-Φ-r-p-P-R-R-F-L-N-A-E-T-G-E)] (cyclo(F[2Nal][dR][dP]PRRFLNAETGE)) was run?
**A.** The value was “significantly increased”.

**Q.** How did the “Cellular Uptake (MFINF, %)” value ([2]; listed as Peptide BH2) turn out when “cyclo(A-A-F-R-R-p-P-R-R-Φ-A-A-A-Q)-miniPEG-K(NF) [BH2]” was run?
**A.** The value was 30-70%.

**Q.** For “cyclo(A-A-F-Φ-F-p-P-R-R-R-A-A-A-Q)-miniPEG-K(NF) [BH3]”, which “Cellular Uptake (MFINF, %)” value ([2]; listed as Peptide BH3) is on record?
**A.** Its value is 30-70%.

**Q.** For “cyclo(A-A-F-Φ-R-p-P-R-R-F-A-A-A-Q)-miniPEG-K(NF) [BH4]”, which “Cellular Uptake (MFINF, %)” value ([2]; listed as Peptide BH4) is on record?
**A.** Its value is 30-70%.

**Q.** Which “Cellular Uptake (MFINF, %)” value ([2]; listed as Peptide BH1) does the source give for “cyclo(A-A-F-Φ-R-p-P-R-R-R-A-A-A-Q)-miniPEG-K(NF) [BH1]” here?
**A.** Its value is 30-70%.
